Measurements reported in paper doi:10.1101/2021.03.04.433988.
These are yes or no findings as the source states them, for the method shown. In cells and extracts the contact can be indirect. Some entries that bind do so weakly or less than the wild type.

The chains behind the UniProt entries cited, without tags or fusion partners. Where a name states a change or a piece, a line headed by the entry shows the natural chain unless it says otherwise. A line that says so, or that is headed by a name, gives the form on record, which may keep a tag or linker. Residues count along the entry.
HA-tagged EZH2 (Q15910-2, form named): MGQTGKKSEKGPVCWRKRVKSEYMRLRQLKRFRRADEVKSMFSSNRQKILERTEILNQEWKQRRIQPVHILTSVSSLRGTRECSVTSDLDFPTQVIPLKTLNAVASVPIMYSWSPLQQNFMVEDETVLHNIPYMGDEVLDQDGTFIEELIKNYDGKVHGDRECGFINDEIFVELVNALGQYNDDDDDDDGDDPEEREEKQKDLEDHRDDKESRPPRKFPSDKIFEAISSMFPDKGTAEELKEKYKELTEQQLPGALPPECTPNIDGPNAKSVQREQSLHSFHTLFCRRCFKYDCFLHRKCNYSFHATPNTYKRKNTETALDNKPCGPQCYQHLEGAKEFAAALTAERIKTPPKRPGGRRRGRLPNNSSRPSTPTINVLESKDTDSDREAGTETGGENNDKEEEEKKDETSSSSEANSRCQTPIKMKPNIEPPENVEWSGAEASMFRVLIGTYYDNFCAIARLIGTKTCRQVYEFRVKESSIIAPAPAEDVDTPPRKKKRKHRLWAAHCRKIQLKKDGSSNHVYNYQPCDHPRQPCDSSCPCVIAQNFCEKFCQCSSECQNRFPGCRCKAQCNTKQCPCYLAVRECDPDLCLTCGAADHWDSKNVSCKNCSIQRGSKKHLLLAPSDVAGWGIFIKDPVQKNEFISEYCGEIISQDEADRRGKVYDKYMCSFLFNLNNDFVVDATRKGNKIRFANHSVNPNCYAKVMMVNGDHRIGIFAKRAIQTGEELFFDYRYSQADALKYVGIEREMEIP
UniProt Q5T4S7, residues 4367-5163: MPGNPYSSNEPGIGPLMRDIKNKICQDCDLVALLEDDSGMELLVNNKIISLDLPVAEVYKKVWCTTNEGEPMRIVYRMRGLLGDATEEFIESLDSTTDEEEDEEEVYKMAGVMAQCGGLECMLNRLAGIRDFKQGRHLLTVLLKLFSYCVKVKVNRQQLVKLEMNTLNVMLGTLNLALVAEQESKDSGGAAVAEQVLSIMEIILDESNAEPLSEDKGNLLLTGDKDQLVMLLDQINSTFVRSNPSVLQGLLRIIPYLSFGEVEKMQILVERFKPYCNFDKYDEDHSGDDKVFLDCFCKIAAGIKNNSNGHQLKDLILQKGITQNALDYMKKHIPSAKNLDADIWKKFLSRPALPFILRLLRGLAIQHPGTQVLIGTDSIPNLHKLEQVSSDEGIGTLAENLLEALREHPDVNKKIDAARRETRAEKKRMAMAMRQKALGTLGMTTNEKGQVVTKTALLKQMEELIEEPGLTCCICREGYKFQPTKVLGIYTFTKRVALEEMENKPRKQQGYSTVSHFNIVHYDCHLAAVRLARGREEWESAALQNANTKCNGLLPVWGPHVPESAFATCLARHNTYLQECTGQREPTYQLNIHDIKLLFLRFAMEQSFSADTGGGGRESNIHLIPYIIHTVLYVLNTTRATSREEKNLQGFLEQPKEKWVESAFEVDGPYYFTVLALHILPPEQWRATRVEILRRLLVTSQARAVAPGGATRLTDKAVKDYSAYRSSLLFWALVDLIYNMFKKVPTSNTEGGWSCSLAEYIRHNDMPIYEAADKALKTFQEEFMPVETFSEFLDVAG

Assays:
HA-tagged EZH2 (human) = HA-tagged EZH2 (human) (UniProt Q15910); experiment: co-IP
[1] = target: Flag-HA-tagged UBR4-LD (human) (UniProt Q5T4S7); experiment: co-IP

Substance	binding (HA-tagged EZH2 (human))	binding [1]
Flag-HA-tagged UBR4-LD (from UniProt Q5T4S7 4367-5163) (domain or fragment)	binds	
HA-tagged EZH2 (from UniProt Q15910-2 1-751)		binds
